{"source": "the supplement of paper PMC8728848", "binders": {"B1": {"name": "MtEccB1 (Mycobacterium tuberculosis H37Rv), O69734 (protein)", "chain": "MGLRLTTKVQVSGWRFLLRRLEHAIVRRDTRMFDDPLQFYSRSIALGIVVAVLILAGAALLAYFKPQGKLGGTSLFTDRATNQLYVLLSGQLHPVYNLTSARLVLGNPANPATVKSSELSKLPMGQTVGIPGAPYATPVSAGSTSIWTLCDTVARADSTSPVVQTAVIAMPLEIDASIDPLQSHEAVLVSYQGETWIVTTKGRHAIDLTDRALTSSMGIPVTARPTPISEGMFNALPDMGPWQLPPIPAAGAPNSLGLPDDLVIGSVFQIHTDKGPQYYVVLPDGIAQVNATTAAALRATQAHGLVAPPAMVPSLVVRIAERVYPSPLPDEPLKIVSRPQDPALCWSWQRSAGDQSPQSTVLSGRHLPISPSAMNMGIKQIHGTATVYLDGGKFVALQSPDPRYTESMYYIDPQGVRYGVPNAETAKSLGLSSPQNAPWEIVRLLVDGPVLSKDAALLEHDTLPADPSPRKVPAGASGAP"}}, "experiment_in_all_cases": "glycan array binding signal (z-score within array); higher = stronger binding", "details_in_all_cases": "glycan notation: IUPAC condensed, linker removed", "key": {"[1]": {"target": "Fuc(a1-3)[Gal(b1-4)]GlcNAc(b1-3)Gal(b1-3)[Fuc(a1-4)]GlcNAc", "method_in_brief": "(§1)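 Columns mapping to the same glycan were averaged after glycan names were converted to IUPAC-condensed notation. The data come from 3228 arrays in the Consortium for Functional Glycomics database, limited to those with an available protein sequence. Binding is reported as a within-array Z-score averaged across arrays of one protein sequence and across linkers.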"}, "[2]": {"target": "Fuc(a1-3)[Gal(b1-4)]GlcNAc(b1-3)Gal(b1-4)[Fuc(a1-3)]GlcNAc", "method_in_brief": "as §1"}, "[3]": {"target": "Fuc(a1-3)[Gal(b1-4)]GlcNAc(b1-3)Gal(b1-4)[Fuc(a1-3)]GlcNAc(b1-3)Gal(b1-4)[Fuc(a1-3)]GlcNAc", "method_in_brief": "as §1"}, "[4]": {"target": "Fuc(a1-3)[Gal(b1-4)]GlcNAc(b1-3)GalNAc", "method_in_brief": "as §1"}, "[5]": {"target": "Fuc(a1-3)[Gal(b1-4)]GlcNAc(b1-6)GalNAc", "method_in_brief": "as §1"}, "[6]": {"target": "Fuc(a1-3)[Gal(b1-4)]GlcNAc(b1-6)[Gal(b1-3)GlcNAc(b1-3)]Gal(b1-4)Glc", "method_in_brief": "as §1"}, "[7]": {"target": "Fuc(a1-3)[Gal(b1-4)]GlcNAc6S", "method_in_brief": "as §1"}, "[8]": {"target": "Fuc(a1-3)[Gal3S(b1-4)]Glc", "method_in_brief": "as §1"}, "[9]": {"target": "Fuc(a1-3)[Gal3S(b1-4)]GlcNAc", "method_in_brief": "as §1"}, "[10]": {"target": "Fuc(a1-3)[Gal3S(b1-4)]GlcNAc6S", "method_in_brief": "as §1"}, "[11]": {"target": "Fuc(a1-3)[GalNAc(b1-4)]GlcNAc", "method_in_brief": "as §1"}, "[12]": {"target": "Fuc(a1-3)[GalNAc(b1-4)]GlcNAc6S", "method_in_brief": "as §1"}, "[13]": {"target": "Fuc(a1-4)GlcNAc", "method_in_brief": "as §1"}, "[14]": {"target": "Fuc(b1-3)GlcNAc", "method_in_brief": "as §1"}, "[15]": {"target": "Gal(a1-2)Gal", "method_in_brief": "as §1"}, "[16]": {"target": "Gal(a1-3)Gal", "method_in_brief": "as §1"}, "[17]": {"target": "Gal(a1-3)Gal(b1-3)GlcNAc", "method_in_brief": "as §1"}, "[18]": {"target": "Gal(a1-3)Gal(b1-3)GlcNAc(b1-2)Man", "method_in_brief": "as §1"}, "[19]": {"target": "Gal(a1-3)Gal(b1-3)GlcNAc(b1-2)Man(a1-3)[Gal(a1-3)Gal(b1-3)GlcNAc(b1-2)Man(a1-6)]Man(b1-4)GlcNAc(b1-4)GlcNAc", "method_in_brief": "as §1"}, "[20]": {"target": "Gal(a1-3)Gal(b1-3)GlcNAc(b1-3)GalNAc", "method_in_brief": "as §1"}, "[21]": {"target": "Gal(a1-3)Gal(b1-3)GlcNAc(b1-6)GalNAc", "method_in_brief": "as §1"}, "[22]": {"target": "Gal(a1-3)Gal(b1-3)[Fuc(a1-4)]GlcNAc(b1-2)Man(a1-3)[Gal(a1-3)Gal(b1-3)[Fuc(a1-4)]GlcNAc(b1-2)Man(a1-6)]Man(b1-4)GlcNAc(b1-4)GlcNAc", "method_in_brief": "as §1"}, "[23]": {"target": "Gal(a1-3)Gal(b1-4)Glc", "method_in_brief": "as §1"}, "[24]": {"target": "Gal(a1-3)Gal(b1-4)GlcNAc", "method_in_brief": "as §1"}, "[25]": {"target": "Gal(a1-3)Gal(b1-4)GlcNAc(b1-2)Man", "method_in_brief": "as §1"}, "[26]": {"target": "Gal(a1-3)Gal(b1-4)GlcNAc(b1-2)Man(a1-3)[Gal(a1-3)Gal(b1-4)GlcNAc(b1-2)Man(a1-6)]Man(b1-4)GlcNAc(b1-4)GlcNAc", "method_in_brief": "as §1"}, "[27]": {"target": "Gal(a1-3)Gal(b1-4)GlcNAc(b1-3)GalNAc", "method_in_brief": "as §1"}, "[28]": {"target": "Gal(a1-3)Gal(b1-4)GlcNAc(b1-6)GalNAc", "method_in_brief": "as §1"}, "[29]": {"target": "Gal(a1-3)Gal(b1-4)[Fuc(a1-3)]GlcNAc", "method_in_brief": "as §1"}, "[30]": {"target": "Gal(a1-3)Gal(b1-4)[Fuc(a1-3)]GlcNAc(b1-2)Man(a1-3)[Gal(a1-3)Gal(b1-4)[Fuc(a1-3)]GlcNAc(b1-2)Man(a1-6)]Man(b1-4)GlcNAc(b1-4)GlcNAc", "method_in_brief": "as §1"}, "[31]": {"target": "Gal(a1-3)GalNAc", "method_in_brief": "as §1"}, "[32]": {"target": "Gal(a1-3)[Gal(a1-4)]Gal(b1-4)GlcNAc", "method_in_brief": "as §1"}, "[33]": {"target": "Gal(a1-4)Gal(b1-3)GlcNAc(b1-2)Man(a1-3)[Gal(a1-4)Gal(b1-3)GlcNAc(b1-2)Man(a1-6)]Man(b1-4)GlcNAc(b1-4)GlcNAc", "method_in_brief": "as §1"}, "[34]": {"target": "Gal(a1-4)Gal(b1-4)Glc", "method_in_brief": "as §1"}, "[35]": {"target": "Gal(a1-4)Gal(b1-4)GlcNAc", "method_in_brief": "as §1"}, "[36]": {"target": "Gal(a1-4)Gal(b1-4)GlcNAc(b1-2)Man(a1-3)[Gal(a1-4)Gal(b1-4)GlcNAc(b1-2)Man(a1-6)]Man(b1-4)GlcNAc(b1-4)GlcNAc", "method_in_brief": "as §1"}, "[37]": {"target": "Gal(a1-4)Gal(b1-4)GlcNAc(b1-3)Gal(b1-4)Glc", "method_in_brief": "as §1"}, "[38]": {"target": "Gal(a1-4)GlcNAc", "method_in_brief": "as §1"}}, "note": "The list shows a part of the results.", "data": [{"binder": "B1", "values": [{"measurement": "glycan array binding signal (z-score)", "setting": "[1]", "result": -0.803}, {"measurement": "glycan array binding signal (z-score)", "setting": "[2]", "result": -0.952}, {"measurement": "glycan array binding signal (z-score)", "setting": "[3]", "result": 0.114}, {"measurement": "glycan array binding signal (z-score)", "setting": "[4]", "result": -0.801}, {"measurement": "glycan array binding signal (z-score)", "setting": "[5]", "result": -1.29}, {"measurement": "glycan array binding signal (z-score)", "setting": "[6]", "result": 0.407}, {"measurement": "glycan array binding signal (z-score)", "setting": "[7]", "result": -0.14}, {"measurement": "glycan array binding signal (z-score)", "setting": "[8]", "result": 0.293}, {"measurement": "glycan array binding signal (z-score)", "setting": "[9]", "result": 0.468}, {"measurement": "glycan array binding signal (z-score)", "setting": "[10]", "result": 0.357}, {"measurement": "glycan array binding signal (z-score)", "setting": "[11]", "result": 1.32}, {"measurement": "glycan array binding signal (z-score)", "setting": "[12]", "result": -0.813}, {"measurement": "glycan array binding signal (z-score)", "setting": "[13]", "result": -0.306}, {"measurement": "glycan array binding signal (z-score)", "setting": "[14]", "result": 1.33}, {"measurement": "glycan array binding signal (z-score)", "setting": "[15]", "result": -0.95}, {"measurement": "glycan array binding signal (z-score)", "setting": "[16]", "result": -1.38}, {"measurement": "glycan array binding signal (z-score)", "setting": "[17]", "result": 1.88}, {"measurement": "glycan array binding signal (z-score)", "setting": "[18]", "result": 0.787}, {"measurement": "glycan array binding signal (z-score)", "setting": "[19]", "result": 0.301}, {"measurement": "glycan array binding signal (z-score)", "setting": "[20]", "result": -0.836}, {"measurement": "glycan array binding signal (z-score)", "setting": "[21]", "result": -0.407}, {"measurement": "glycan array binding signal (z-score)", "setting": "[22]", "result": 2.23}, {"measurement": "glycan array binding signal (z-score)", "setting": "[23]", "result": 0.359}, {"measurement": "glycan array binding signal (z-score)", "setting": "[24]", "result": 1.38}, {"measurement": "glycan array binding signal (z-score)", "setting": "[25]", "result": -0.967}, {"measurement": "glycan array binding signal (z-score)", "setting": "[26]", "result": -0.269}, {"measurement": "glycan array binding signal (z-score)", "setting": "[27]", "result": -0.935}, {"measurement": "glycan array binding signal (z-score)", "setting": "[28]", "result": -1.1}, {"measurement": "glycan array binding signal (z-score)", "setting": "[29]", "result": -0.497}, {"measurement": "glycan array binding signal (z-score)", "setting": "[30]", "result": 2.03}, {"measurement": "glycan array binding signal (z-score)", "setting": "[31]", "result": -0.2}, {"measurement": "glycan array binding signal (z-score)", "setting": "[32]", "result": 0.908}, {"measurement": "glycan array binding signal (z-score)", "setting": "[33]", "result": -1.76}, {"measurement": "glycan array binding signal (z-score)", "setting": "[34]", "result": 0.676}, {"measurement": "glycan array binding signal (z-score)", "setting": "[35]", "result": -0.116}, {"measurement": "glycan array binding signal (z-score)", "setting": "[36]", "result": 0.041}, {"measurement": "glycan array binding signal (z-score)", "setting": "[37]", "result": -0.215}, {"measurement": "glycan array binding signal (z-score)", "setting": "[38]", "result": -0.402}]}]}
